The source of these data is paper doi:10.1101/575860.

Amino acid sequences for entries named in this document (tags omitted). A change or cut given only in a name is not applied to a line headed by its entry.
UniProt P04050, whole entry: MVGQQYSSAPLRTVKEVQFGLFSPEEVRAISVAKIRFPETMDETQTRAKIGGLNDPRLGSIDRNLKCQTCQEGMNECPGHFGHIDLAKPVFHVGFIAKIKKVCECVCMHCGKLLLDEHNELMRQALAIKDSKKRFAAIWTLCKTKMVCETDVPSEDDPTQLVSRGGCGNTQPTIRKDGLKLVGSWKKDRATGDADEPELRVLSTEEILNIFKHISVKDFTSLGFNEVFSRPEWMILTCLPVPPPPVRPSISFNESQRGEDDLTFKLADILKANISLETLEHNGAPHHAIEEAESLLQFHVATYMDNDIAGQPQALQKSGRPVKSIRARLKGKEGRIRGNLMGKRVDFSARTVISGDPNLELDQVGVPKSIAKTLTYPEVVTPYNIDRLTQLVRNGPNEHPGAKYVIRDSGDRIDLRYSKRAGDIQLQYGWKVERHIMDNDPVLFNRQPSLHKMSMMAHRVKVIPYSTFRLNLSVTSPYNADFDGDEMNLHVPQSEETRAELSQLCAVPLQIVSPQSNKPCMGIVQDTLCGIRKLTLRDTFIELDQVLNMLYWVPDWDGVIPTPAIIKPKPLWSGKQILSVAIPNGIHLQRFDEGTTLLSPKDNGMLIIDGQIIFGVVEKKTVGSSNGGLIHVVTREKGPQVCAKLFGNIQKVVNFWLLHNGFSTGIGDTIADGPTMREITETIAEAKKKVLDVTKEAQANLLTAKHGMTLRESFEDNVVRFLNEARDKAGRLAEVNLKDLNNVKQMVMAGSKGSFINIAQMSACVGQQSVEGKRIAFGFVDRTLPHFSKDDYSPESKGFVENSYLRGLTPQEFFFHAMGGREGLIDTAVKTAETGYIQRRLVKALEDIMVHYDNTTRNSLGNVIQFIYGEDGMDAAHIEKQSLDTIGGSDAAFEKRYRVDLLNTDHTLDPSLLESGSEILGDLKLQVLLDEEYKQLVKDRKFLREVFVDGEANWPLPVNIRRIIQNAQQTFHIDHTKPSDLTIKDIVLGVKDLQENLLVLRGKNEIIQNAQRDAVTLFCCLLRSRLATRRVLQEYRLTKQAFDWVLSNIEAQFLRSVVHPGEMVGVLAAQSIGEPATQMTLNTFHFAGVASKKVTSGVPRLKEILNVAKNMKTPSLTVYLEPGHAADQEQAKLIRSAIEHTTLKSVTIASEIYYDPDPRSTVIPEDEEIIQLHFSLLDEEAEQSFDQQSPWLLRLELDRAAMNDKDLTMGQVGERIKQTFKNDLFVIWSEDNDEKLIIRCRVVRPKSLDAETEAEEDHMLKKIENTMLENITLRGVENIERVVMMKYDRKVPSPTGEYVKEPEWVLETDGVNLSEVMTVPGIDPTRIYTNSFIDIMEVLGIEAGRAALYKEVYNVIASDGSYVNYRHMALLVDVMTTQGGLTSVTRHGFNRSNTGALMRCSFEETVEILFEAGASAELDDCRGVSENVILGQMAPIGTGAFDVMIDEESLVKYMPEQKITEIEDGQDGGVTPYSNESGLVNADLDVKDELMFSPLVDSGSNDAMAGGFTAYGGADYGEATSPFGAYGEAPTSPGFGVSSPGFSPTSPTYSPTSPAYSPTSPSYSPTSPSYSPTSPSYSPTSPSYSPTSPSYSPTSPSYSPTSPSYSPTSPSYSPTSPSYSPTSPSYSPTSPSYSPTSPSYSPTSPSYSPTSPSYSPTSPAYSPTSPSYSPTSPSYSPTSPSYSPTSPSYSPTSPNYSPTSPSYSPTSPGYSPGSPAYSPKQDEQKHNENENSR

The target in assay [1] is T1, HA-Ddi1 (wild type), overexpressed from pADH-HA-DDI1 (S. cerevisiae) (UniProt P40087).
T1 sequence: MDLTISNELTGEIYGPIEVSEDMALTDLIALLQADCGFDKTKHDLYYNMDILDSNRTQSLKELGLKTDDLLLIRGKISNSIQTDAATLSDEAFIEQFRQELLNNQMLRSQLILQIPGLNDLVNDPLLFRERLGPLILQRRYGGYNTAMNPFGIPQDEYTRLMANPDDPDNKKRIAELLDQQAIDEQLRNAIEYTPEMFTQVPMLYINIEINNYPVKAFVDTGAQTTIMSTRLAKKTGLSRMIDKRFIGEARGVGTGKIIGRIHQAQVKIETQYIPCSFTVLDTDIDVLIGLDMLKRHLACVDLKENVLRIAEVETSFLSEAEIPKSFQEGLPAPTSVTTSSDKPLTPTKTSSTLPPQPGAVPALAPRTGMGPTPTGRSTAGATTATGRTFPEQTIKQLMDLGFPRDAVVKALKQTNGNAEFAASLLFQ
Nature of the assay: co-IP.

For assay [2], the target named is T2, HA-Ddi1-D220A (catalytic protease mutant), overexpressed from pADH-HA-ddi1-D220A (S. cerevisiae) (UniProt P40087).
T2 sequence: T1 sequence with D220A
Description: co-IP.

Residue numbers refer to the chain shown, from its start. No constants are given. Whether binding was seen depends on the method and setting. In cells and extracts the contact can be indirect. Some entries that bind do so weakly or less than the wild type. Where a sequence is shown, tags or fusion partners need not be part of it.

Take “Rpb1, core component of RNA polymerase II (from UniProt P04050 1-1733)”: the binding result in assay [1] and in assay [2] was “binds” throughout.
